Experimental data published in article PMC12402098, “YTHDF3 recognizes DNA N6-methyladenine and recruits ALKBH1 for 6mA removal from genomic DNA” (The EMBO Journal, 2025).
Numbering of substitutions follows the chain as printed. Construct, isoform or probe ends are uncertain for at least one entry. For some of these results: Weaker means in comparison with the reference protein, sequence or condition of that experiment. For some of these results: Tags and fusion partners may be left off the protein sequences shown. For some of these results: At least one result comes from cells or an extract, where the contact may be indirect.

What was measured:
[1] = test system: ALKBH1 + YTHDF3 wild type; experiment: pull-down; conditions: YTHDF3 increases ALKBH1 binding; N6-methyl-dA at A20 of strand 1; pull-down: streptavidin-agarose, 1 nmol DNA, 30 C 30 min; recombinant protein; label: 3' biotin strand 1
YTHDF3 wild type [2] = biological target: T1, YTHDF3 wild type (UniProt Q7Z739); experiment: EMSA, pull-down; conditions: EMSA: LightShift kit, 30 C 20 min, then 2% glutaraldehyde on ice 15 min, 5% native gel, recombinant protein, protein details: His
T1 sequence (looked up, limits assumed): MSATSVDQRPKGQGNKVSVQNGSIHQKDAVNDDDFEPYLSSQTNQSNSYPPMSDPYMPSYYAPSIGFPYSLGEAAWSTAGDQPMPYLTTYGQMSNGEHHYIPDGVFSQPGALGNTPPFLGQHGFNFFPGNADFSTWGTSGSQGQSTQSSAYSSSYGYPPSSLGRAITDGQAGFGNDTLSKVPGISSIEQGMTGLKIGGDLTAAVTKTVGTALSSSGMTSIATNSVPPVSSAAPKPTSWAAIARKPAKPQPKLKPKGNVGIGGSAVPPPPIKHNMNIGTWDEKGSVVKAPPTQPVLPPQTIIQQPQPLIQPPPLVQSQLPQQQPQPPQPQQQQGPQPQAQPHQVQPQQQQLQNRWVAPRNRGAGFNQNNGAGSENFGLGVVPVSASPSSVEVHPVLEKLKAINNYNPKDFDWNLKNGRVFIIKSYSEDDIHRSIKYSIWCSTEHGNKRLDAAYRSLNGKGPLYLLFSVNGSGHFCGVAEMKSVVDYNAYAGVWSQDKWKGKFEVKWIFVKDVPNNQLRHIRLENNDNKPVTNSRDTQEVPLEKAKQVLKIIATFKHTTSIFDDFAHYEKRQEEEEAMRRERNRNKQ

[3] = biological target: T2, YTHDF3 wild type, immunopurified (Homo sapiens) (UniProt Q7Z739); experiment: EMSA; conditions: EMSA: LightShift kit, 30 C 20 min, then 2% glutaraldehyde on ice 15 min, 5% native gel, protein in a lysate after overexpression, protein details: Flag, label: 3' biotin strand 1
T2 sequence (looked up, limits assumed): T1 sequence (looked up, limits assumed)

YTHDF3 wild type [4] = biological target: T1, YTHDF3 wild type; experiment: EMSA; conditions: EMSA: LightShift kit, 30 C 20 min, then 2% glutaraldehyde on ice 15 min, 5% native gel, recombinant protein, protein details: His, label: 3' biotin strand 1
YTHDF3 MT6mA W438R,W492R = biological target: T3, YTHDF3 MT6mA W438R,W492R (UniProt Q7Z739); experiment: pull-down or EMSA; conditions: N6-methyl-dA at A10 of strand 1; EMSA: LightShift kit, 30 C 20 min, then 2% glutaraldehyde on ice 15 min, 5% native gel; recombinant protein; protein details: His; label: 3' biotin strand 1
T3 sequence (looked up, limits assumed): T1 sequence (looked up, limits assumed) with W438R, W492R

ALKBH1 = biological target: T4, ALKBH1 (UniProt Q13686); experiment: SPR; conditions: SPR: 1x HBS-EP+, biotin-DNA on SA chip (~500 RU), 30 ul/min, recombinant protein, label: 3' biotin strand 1
T4 sequence (looked up, limits assumed): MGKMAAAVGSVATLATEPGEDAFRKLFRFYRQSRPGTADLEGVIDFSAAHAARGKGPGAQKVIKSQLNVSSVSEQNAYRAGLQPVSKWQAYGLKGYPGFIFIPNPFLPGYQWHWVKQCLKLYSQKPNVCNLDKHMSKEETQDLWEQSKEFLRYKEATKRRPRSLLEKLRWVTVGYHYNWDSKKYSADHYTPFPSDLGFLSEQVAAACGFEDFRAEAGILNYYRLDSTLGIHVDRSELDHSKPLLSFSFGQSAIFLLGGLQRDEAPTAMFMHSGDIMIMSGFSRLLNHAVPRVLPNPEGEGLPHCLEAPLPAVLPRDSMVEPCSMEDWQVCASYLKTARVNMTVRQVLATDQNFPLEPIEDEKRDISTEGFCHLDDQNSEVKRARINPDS

YTHDF3 wild type [5] = biological target: T1, YTHDF3 wild type; experiment: SPR; conditions: SPR: 1x HBS-EP+, biotin-DNA on SA chip (~500 RU), 30 ul/min, recombinant protein, protein details: His, label: 3' biotin strand 1
[6] = biological target: T5, cellular ALKBH1 (Homo sapiens) (UniProt Q13686); experiment: pull-down; conditions: increased by YTHDF3, decreased in YTHDF3 KO; N6-methyl-dA at A10 of strand 1; pull-down: streptavidin-agarose, 1 nmol DNA, 30 C 30 min; protein in an extract; label: 3' biotin strand 1
T5 sequence (looked up, limits assumed): T4 sequence (looked up, limits assumed)

[7] = biological target: T6, YTHDF3 YTH domain construct (UniProt Q7Z739); experiment: pull-down; conditions: N6-methyl-dA at A10 of strand 1; pull-down: streptavidin-agarose, 1 nmol DNA, 30 C 30 min; protein in a lysate after overexpression; protein details: Flag; label: 3' biotin strand 1
T6 sequence (looked up, limits assumed): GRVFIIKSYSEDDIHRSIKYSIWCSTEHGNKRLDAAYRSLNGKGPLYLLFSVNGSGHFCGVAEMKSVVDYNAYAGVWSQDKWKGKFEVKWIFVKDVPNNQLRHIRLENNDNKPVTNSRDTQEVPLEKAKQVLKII

[8] = biological target: T7, YTHDF3 MT6mA, immunopurified or cellular W438R,W492R (Homo sapiens) (UniProt Q7Z739); experiment: EMSA, pull-down; conditions: N6-methyl-dA at A10 of strand 1; EMSA: LightShift kit, 30 C 20 min, then 2% glutaraldehyde on ice 15 min, 5% native gel; protein in a lysate after overexpression; protein details: Flag; label: 3' biotin strand 1
T7 sequence (looked up, limits assumed): T1 sequence (looked up, limits assumed) with W438R, W492R

[9] = test system: ALKBH1 + YTHDF3 wild type; experiment: pull-down, EMSA; conditions: YTHDF3 increases ALKBH1 binding; N6-methyl-dA at A10 of strand 1; EMSA: LightShift kit, 30 C 20 min, then 2% glutaraldehyde on ice 15 min, 5% native gel; recombinant protein; label: 3' biotin strand 1
[10] = N6-methyl-dA at A10 of strand 1

## AACTTCGTGCAGGCATGGGATCTTGTCTACT (double strand) [ds-6mA]
[1]
  binding result: binds
YTHDF3 wild type [2]; N6-methyl-dA at A20 of strand 1, label: 3' biotin strand 1
  binding result: binds

## AACTTCGTGCAGGCATGGGATCTTGTCTACT (double strand) [ds-A]
YTHDF3 wild type [2]; label: 3' biotin strand 1
  binding result: binds more weakly

## AACTTCGTGCAGGCATGGGATCTTGTCTACT / AGTAGACACATGCCTGCACGAAGTT [Bulge-A]
YTHDF3 wild type [2]; label: 3' biotin strand 1
  binding result: binds more weakly

## AACTTCGTGCAGGCATGGGATCTTGTCTACT / AGTAGACAGTCGATCATGCCTGCACGAAGTT [Bubble-A]
YTHDF3 wild type [2]; label: 3' biotin strand 1
  binding result: binds more weakly

## AACTTCGTGCAGGCATGGGATCTTGTCTACT [ss-A]
YTHDF3 wild type [2]; label: 3' biotin, single-stranded DNA
  binding result: binds more weakly

## CTATGTTTCATGTACCGCCA (double strand) [6mA-ds-oligo]
[3]; [10]
  binding result: binds
YTHDF3 wild type [4]; [10]
  binding result: binds
YTHDF3 MT6mA W438R,W492R
  binding result: binds more weakly
ALKBH1; [10]
  Kd: 1240 nM
YTHDF3 wild type [5]; [10]
  Kd: 162 nM
[6]
  binding result: binds
[7]
  binding result: binds
[8]
  binding result: binds more weakly
[9]
  binding result: binds

## CTATGTTTCATGTACCGCCA (double strand) [A-ds-oligo]
[3]
  binding result: binds more weakly
YTHDF3 wild type [4]
  binding result: binds more weakly
ALKBH1
  Kd: 2440 nM
YTHDF3 wild type [5]
  Kd: 512 nM
